The record followed here is paper PMC4962003.

For this assay, the target named is T1, MutY (Bacillus subtilis) (UniProt O31584).
T1 sequence: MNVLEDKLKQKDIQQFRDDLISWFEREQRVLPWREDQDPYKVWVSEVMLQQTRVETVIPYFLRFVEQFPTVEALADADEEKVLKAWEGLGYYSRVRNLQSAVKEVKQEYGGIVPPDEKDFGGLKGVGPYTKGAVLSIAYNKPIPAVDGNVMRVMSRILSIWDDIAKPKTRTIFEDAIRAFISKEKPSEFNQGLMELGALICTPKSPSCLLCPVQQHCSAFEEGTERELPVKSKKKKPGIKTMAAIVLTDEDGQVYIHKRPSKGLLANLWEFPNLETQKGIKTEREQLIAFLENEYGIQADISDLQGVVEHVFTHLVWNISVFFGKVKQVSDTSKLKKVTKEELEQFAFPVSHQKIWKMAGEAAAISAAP
Nature of the assay: two-hybrid; BacterioMatch bacterial two-hybrid in an E. coli reporter strain; pBT fusion as bait, pTRG fusion as target; read-out is growth of colonies on screening medium (SM) against non-screening medium (NSM).

No constants are given. Whether binding was seen depends on the method and setting.

B1: Mfd (protein, UniProt P37474 1-1177)
chain: MDNIQTFIKESDDFKSIINGLHEGLKEQLLAGLSGSARSVFTSALANETNKPIFLITHNLYQAQKVTDDLTSLLEDRSVLLYPVNELISSEIAVASPELRAQRLDVINRLTNGEAPIVVAPVAAIRRMLPPVEVWKSSQMLIQVGHDIEPDQLASRLVEVGYERSDMVSAPGEFSIRGGIIDIYPLTSENPVRIELFDTEVDSIRSFNSDDQRSIETLTSINIGPAKELIIRPEEKARAMEKIDSGLAASLKKLKADKQKEILHANISHDKERLSEGQTDQELVKYLSYFYEKPASLLDYTPDNTLLILDEVSRIHEMEEQLQKEEAEFITNLLEEGKILHDIRLSFSFQKIVAEQKRPLLYYSLFLRHVHHTSPQNIVNVSGRQMQSFHGQMNVLAGEMERFKKSNFTVVFLGANKERTQKLSSVLADYDIEAAMTDSKKALVQGQVYIMEGELQSGFELPLMKLAVITEEELFKNRVKKKPRKQKLTNAERIKSYSELQIGDYVVHINHGIGKYLGIETLEINGIHKDYLNIHYQGSDKLYVPVEQIDQVQKYVGSEGKEPKLYKLGGSEWKRVKKKVETSVQDIADDLIKLYAEREASKGYAFSPDHEMQREFESAFPYQETEDQLRSIHEIKKDMERERPMDRLLCGDVGYGKTEVAIRAAFKAIGDGKQVALLVPTTILAQQHYETIKERFQDYPINIGLLSRFRTRKEANETIKGLKNGTVDIVIGTHRLLSKDVVYKDLGLLIIDEEQRFGVTHKEKIKQIKANVDVLTLTATPIPRTLHMSMLGVRDLSVIETPPENRFPVQTYVVEYNGALVREAIERELARGGQVYFLYNRVEDIERKADEISMLVPDAKVAYAHGKMTENELETVMLSFLEGESDVLVSTTIIETGVDIPNVNTLIVFDADKMGLSQLYQLRGRVGRSNRVAYAYFTYRRDKVLTEVAEKRLQAIKEFTELGSGFKIAMRDLTIRGAGNLLGAQQHGFIDSVGFDLYSQMLKEAIEERKGDTAKTEQFETEIDVELDAYIPETYIQDGKQKIDMYKRFRSVATIEEKNELQDEMIDRFGNYPKEVEYLFTVAEMKVYARQERVELIKQDKDAVRLTISEEASAEIDGQKLFELGNQYGRQIGLGMEGKKLKISIQTKGRSADEWLDTVLGMLKGLKDVKKQTISST
Consider B1, for which the binding result is on record as “no binding”.
